Measured values: US20170267750A1, “Method of Treating Ovarian and Renal Cancer Using Antibodies Against T Cell Immunoglobulin Domain and Mucin Domain 1 (TIM-1) Antigen” (Celldex Therapeutics, Inc., priority 2005, published 2017)
Results are given in words; binding and its absence hold for the method and conditions named. Some results given as binding are weak or reduced against the parent protein; the word gives no strength.

Protein sequences, listed by entry. Tags and fused reporters are not part of them. Residues count along the entry.
UniProt Q96D42, residues 21-364: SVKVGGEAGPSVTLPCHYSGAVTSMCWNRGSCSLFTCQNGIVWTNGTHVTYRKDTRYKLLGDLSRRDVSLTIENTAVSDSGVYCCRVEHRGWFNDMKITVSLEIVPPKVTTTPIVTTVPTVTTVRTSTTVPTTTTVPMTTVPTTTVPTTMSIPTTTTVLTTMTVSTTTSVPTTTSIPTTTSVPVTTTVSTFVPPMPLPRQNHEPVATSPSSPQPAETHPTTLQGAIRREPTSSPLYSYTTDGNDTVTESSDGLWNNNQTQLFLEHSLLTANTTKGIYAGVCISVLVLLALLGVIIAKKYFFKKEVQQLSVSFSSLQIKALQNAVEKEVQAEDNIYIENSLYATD

How the values were obtained:
[1] = target: TIM-1 peptide A) … (human); assay: ELISA on coated peptides
[2] = target: TIM-1 peptide B) … (human); assay: ELISA on coated peptides
[3] = target: TIM-1 peptide C) … (human); assay: ELISA on coated peptides
[4] = target: TIM-1 peptide F) … (human); assay: ELISA on coated peptides
[5] = target: minimal epitope peptide LPRQNH (human); assay: ELISA on coated truncated peptides
[6] = target: TIM-1 peptide C) … (human); assay: ELISA reactivity with synthetic peptide
[7] = target: TIM-1 (T cell, immunoglobulin domain and mucin domain 1), cell membrane-bound (human) (UniProt Q96D42); assay: FACS on ACHN and CAKI-2 renal cancer cells
[8] = target: TIM-1 peptide A) … (human); assay: ELISA on coated overlapping TIM-1 peptides
[9] = target: truncated peptide LPRQNHE (Table 10) (human); assay: ELISA reactivity with truncated synthetic peptide
[10] = target: truncated peptide PLPRQNHE (Table 10) (human); assay: ELISA reactivity with truncated synthetic peptide
[11] = target: alanine scan peptide …; assay: ELISA reactivity with synthetic peptide (alanine scan)

Measured: binding

B1: anti-TIM-1 monoclonal antibody 2.70.2 (antibody, human IgG4, kappa, V domains shown)
VH: QVQLVESGGGVVQPGRSLRLSCAASGFIFSRYGMHWVRQAPGKGLKWVAVIWYDGSNKLYADSVKGRFTISRDNSKNTLYLQMNSLRAEDTAVYYCARDYYDNSRHHWGFDYWGQGTLVTVSS
VL: DIVMTQTPLSLPVTPGEPASISCRSSRSLLDSDDGNTYLDWYLQKPGQSPQLLIYTLSYRASGVPDRFSGSGSGTDFTLKISRVEAEDVGVYYCMQRVEFPITFGQGTRLEIKR
binds: all assays above
